Assay results: paper PMC9894555
No constants are given. Whether binding was seen depends on the method and setting. In cells and extracts the contact can be indirect. Some binding calls cover weakened binding; strength is not graded here. Where a sequence is shown, tags or fusion partners need not be part of it.

Target: T1, Hmg2-GFP (yeast (strains derived from S288C or Resgen)) (UniProt P12684)
T1 sequence: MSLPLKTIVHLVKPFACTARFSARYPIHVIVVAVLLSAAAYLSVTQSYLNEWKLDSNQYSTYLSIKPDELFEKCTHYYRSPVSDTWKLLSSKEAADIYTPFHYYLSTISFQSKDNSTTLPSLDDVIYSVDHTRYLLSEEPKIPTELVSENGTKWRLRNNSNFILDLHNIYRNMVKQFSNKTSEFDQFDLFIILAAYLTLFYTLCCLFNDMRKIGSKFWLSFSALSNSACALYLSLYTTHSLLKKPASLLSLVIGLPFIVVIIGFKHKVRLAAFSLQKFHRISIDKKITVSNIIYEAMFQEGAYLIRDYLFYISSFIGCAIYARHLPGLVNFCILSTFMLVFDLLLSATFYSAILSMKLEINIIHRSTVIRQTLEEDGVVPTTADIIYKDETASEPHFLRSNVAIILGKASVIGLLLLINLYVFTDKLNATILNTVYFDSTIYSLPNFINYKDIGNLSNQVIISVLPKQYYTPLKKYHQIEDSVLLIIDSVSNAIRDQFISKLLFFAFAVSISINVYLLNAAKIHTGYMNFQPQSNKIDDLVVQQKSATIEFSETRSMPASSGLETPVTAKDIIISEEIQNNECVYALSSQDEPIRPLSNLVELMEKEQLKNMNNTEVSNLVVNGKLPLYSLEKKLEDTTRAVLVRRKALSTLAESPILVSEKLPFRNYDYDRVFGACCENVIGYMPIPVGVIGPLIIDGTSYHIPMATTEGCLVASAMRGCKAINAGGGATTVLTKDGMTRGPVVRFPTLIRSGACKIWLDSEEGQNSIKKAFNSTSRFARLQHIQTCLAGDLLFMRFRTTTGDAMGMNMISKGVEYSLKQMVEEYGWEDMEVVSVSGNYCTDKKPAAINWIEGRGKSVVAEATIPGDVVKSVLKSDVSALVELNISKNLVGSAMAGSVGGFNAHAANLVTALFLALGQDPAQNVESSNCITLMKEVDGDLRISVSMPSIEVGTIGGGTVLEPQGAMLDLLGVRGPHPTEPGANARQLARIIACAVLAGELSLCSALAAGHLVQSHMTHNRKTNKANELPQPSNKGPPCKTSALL
Assay: co-IP; yeast microsomes solubilised in 1% DDM in XL buffer (1 h, 4°C), cleared by centrifugation and ultracentrifugation; supernatant incubated overnight at 4°C with GFP-Trap agarose to capture Hmg2-GFP; immunoblot with anti-GFP, anti-HA and anti-Sec61; cells not expressing Hmg2-GFP as negative control

- binding: binds
B1: Dfm1-HA (protein, UniProt Q12743 1-341)
chain: MAGPRNVRTLHGNGGRNNDVMGPKEFWLNIPPITRTLFTLAIVMTIVGRLNLINPWYFIYVWNLTFKKVQIWRLLTSCVMLSSRAMPALMELYSIYDRSSQLERGHFGPGLSNRRGPMVTVDYAYYLCFCILAITTATTIIYGSYYPVVLTSGFISCITYTWSIDNANVQIMFYGLIPVWGKYFPLIQLFISFVFNEGDFVISLIGFTTGYLYTCLDTHTLGPIWGMISRKADPTYGISPNGKFSTPWWFTSLYARITGAHNETATFNNNFANVPSSQRETRTFSGRGQRLGTAPATLSQTSGTDSGRASGSQLRSGPSNLNQFQGRGQRVGQTNSPSDSQ
